# This is one part of the list. Shown are side measurements of this screen, not its main read-out; they come without a call. Compounds called inactive in the main read-out are mostly missing here. Potencies come from curve fits of mixed quality, noted in brackets.
# Test: qHTS Assay for Modulators of Lamin A Splicing
# Details: HeLa LMNA splicing GFP/RFP minigene ratio, 48 h
# Summary of the method: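 S3 HeLa cells stably expressing lamin A-EGFP splicing minigene plus DsRed2, 600 cells/well, 48 h compound exposure at 37C. Laser-scanning cytometry; analysed as GFP (500-530 nm)/RFP (575-640 nm) total intensity ratio; 0.5% DMSO vehicle.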
# [1] = measured here: GFP splicing reporter channel
# [2] = measured here: RFP viability control channel
SMILES,AC50 [1],AC50 [2]
O=C(NCc1cccs1)C(=O)NCC(c1ccco1)N1CCN(c2ccccc2F)CC1 (configuration not stated),"1.26 µM [falling, full curve]","2.51 µM [falling, partial curve, poor fit]"
Fc1cccc(Cn2cc(C(=S)N3CCCCC3)c3ccccc32)c1,,"11.2 µM [rising, single point]"
COc1ccccc1Oc1coc2c(CN3CCN(C)CC3)c(O)ccc2c1=O,,"35.5 µM [rising, single point]"
COc1ccc(C2=CSC3=NNC4(CCCCC4)NN23)cc1,"1 µM [falling, full curve]","0.562 µM [falling, full curve, poor fit]"
CCOc1ccc(-c2c(C)nn3c(C)c(C(=O)Nc4cc(C)cc(C)c4)cnc23)cc1OCC,"0.398 µM [falling, full curve]","0.316 µM [falling, full curve, poor fit]"
Cc1sc2nc(C3CC3)nc(N3CCN(S(=O)(=O)c4ccc(F)cc4)CC3)c2c1C,,"11.2 µM [rising, partial curve, poor fit]"
Cc1ccccc1C(=O)Nc1ccc(C(=O)N/N=C/c2ccc(F)cc2)cc1,"4.47 µM [falling, partial curve]","6.31 µM [falling, single point]"
COc1ccc(-c2nc3scc(CCNS(=O)(=O)c4ccc5c(c4)OCCO5)n3n2)cc1,"0.282 µM [falling, partial curve]",
Cc1oc(-c2ccccc2F)nc1CN1CCC(C(=O)NCc2cccs2)CC1,"2 µM [falling, partial curve]","2.82 µM [falling, partial curve, poor fit]"
CC(C)(C)C(=O)Nc1nc(-c2ccccc2)ns1,,"17.8 µM [rising, single point]"
Cc1ccc(NC(=O)/C=C/c2ccc([N+](=O)[O-])s2)c(C)c1,"0.00794 µM [falling, full curve, poor fit]","35.5 µM [falling, single point]"
CC(O)c1cccc(NC(=O)C2CCCCC2)c1 (configuration not stated),,"0.501 µM [falling, single point]"
CCC(=O)C1=C(c2ccc(C)cc2)N(C(=O)CC)n2c(nnc2C2CCCCC2)S1,,"3.55 µM [rising, partial curve]"
O=C(CCCCCCCCC(=O)N/N=C/c1ccco1)N/N=C/c1ccco1,"10 µM [rising, partial curve]","11.2 µM [rising, partial curve]"
CN(C)[C@H]1C(=O)C(C(=O)NCN2CCCC2)=C(O)[C@]2(O)C(=O)C3=C(O)c4c(O)cccc4[C@@](C)(O)[C@H]3C[C@@H]12,"0.01 µM [falling, full curve, poor fit]","0.00398 µM [falling, full curve, poor fit]"
CCOC(=O)c1cnn(CCOC(=O)c2ccccc2F)c1NC(=O)c1ccccc1F,,"31.6 µM [rising, single point]"
COC(=O)/C(=C\Nc1ccc(Cl)cc1Cl)NC(=O)c1ccccc1,"14.1 µM [rising, single point]","25.1 µM [rising, single point]"
COc1ccc(NC(=O)c2ccc3c(c2)NC(=O)CS3)cc1S(=O)(=O)Nc1ccc(Br)cc1,,"15.8 µM [falling, partial curve]"
COc1ccc(/C=C(\C#N)C(=O)OC2CCOC2=O)cc1 (configuration not stated),"35.5 µM [rising, partial curve]",
COCCn1c(C)cc(C(=O)CSc2nc3ccccc3c(=O)[nH]2)c1C,,"7.08 µM [rising, partial curve, poor fit]"
COc1cc(Cl)c(S(=O)(=O)N2CCN(Cc3ccc4c(c3)OCO4)CC2)cc1Cl,"20 µM [rising, single point]","35.5 µM [rising, single point]"
C=CC(C1=CC(=O)C(OC)=C(OC)C1=O)c1ccccc1 (configuration not stated),"10 µM [falling, partial curve]","10 µM [falling, partial curve]"
Cc1ccc(C)c(Cn2c(=O)c3c(nc4n3CCN4c3ccccc3)n(C)c2=O)c1,"35.5 µM [falling, partial curve]","35.5 µM [falling, partial curve, poor fit]"
CC1CCCC(NC(=O)C2c3ccccc3C(=O)N2Cc2cccs2)C1C (configuration not stated),,"12.6 µM [rising, single point]"
CC(=O)Nc1n[nH]c(-c2ccc(C)cc2)c1C,"10 µM [rising, partial curve]","12.6 µM [rising, partial curve]"
CC(=O)c1cn(CC(=O)Nc2ccc(C)c(C)c2)c2ccccc12,,"0.0282 µM [falling, full curve, poor fit]"
O=C(CO/N=C/c1ccc(OC(F)F)cc1)NC1CCCCCC1,"1.58 µM [falling, full curve, poor fit]",

SMILES,AC50 [1],AC50 [2]
O=C(CCSc1ccc(F)cc1)Nc1ccc(-n2cnnn2)cc1,,"35.5 µM [rising, single point]"
COc1cc2c3nnc(-c4ccc(F)cc4)c-3cn(Cc3ccc(F)cc3)c2cc1OC,"35.5 µM [falling, single point]","35.5 µM [falling, single point]"
COc1ccccc1N1CCN(S(=O)(=O)/C=C/c2ccccc2)CC1,,"20 µM [rising, single point]"
O=C(Cn1ccn(-c2ccc(F)cc2)c(=O)c1=O)Nc1ccc(F)cc1,"11.2 µM [falling, partial curve, poor fit]","0.00447 µM [falling, full curve, poor fit]"
COc1ccccc1NC(=O)CCCn1c(=S)[nH]c2ccccc2c1=O,,"0.00355 µM [falling, full curve, poor fit]"
O=C(NCCC1=CCCCC1)c1ccc(Cl)c(S(=O)(=O)Nc2ccccc2)c1,,"8.91 µM [rising, partial curve]"
O=C(NCCc1ccc(Cl)cc1)c1ccc(CS(=O)(=O)c2ccc(Cl)cc2)o1,"35.5 µM [falling, single point]",
O=C(CSCCc1ccccn1)Nc1cccnc1,"5.62 µM [falling, single point]","5.62 µM [falling, single point]"
O=C1S/C(=C\C=C\c2ccco2)C(=O)N1c1ccccc1,,"35.5 µM [rising, single point]"
CC(C)(C)c1ccc(Cn2nnc3c(=O)[nH]c(C4CCN(C(=O)Cc5cccs5)CC4)nc32)cc1,"15.8 µM [rising, single point]","14.1 µM [rising, single point]"
c1ccc(CN=C2NN=C(c3cc4ccccc4o3)CS2)cc1,"15.8 µM [falling, single point]","14.1 µM [falling, single point]"
COc1ccc(Nc2nnc(-c3ccc(C)cc3)c3ccccc23)cc1C(=O)N1CCCCC1,,"35.5 µM [rising, single point]"
Cc1ccc2cc(CN(Cc3ccccc3)Cc3nnnn3C3CCCC3)c(=O)[nH]c2c1,,"20 µM [rising, single point]"
COc1ccccc1/C=N/NC(=O)c1ccc(NC(=O)c2ccccc2Br)cc1,,"3.16 µM [falling, partial curve]"
O=C(CSc1nnc(Nc2ccccc2)s1)Nc1ccc(S(=O)(=O)N2CCOCC2)cc1,,"31.6 µM [rising, single point]"
CCN1CCc2c(sc(-n3cccc3)c2C(C)NC(=O)Nc2ccc(Br)cc2)C1 (configuration not stated),"11.2 µM [rising, partial curve, poor fit]",
COc1cccc(Nc2nnc(SCc3nc4ccccc4s3)s2)c1,"35.5 µM [rising, single point]","25.1 µM [rising, single point]"
Cc1ccc(C(=O)N(Cc2ccccc2)C(C)(C)C)cc1C,,"14.1 µM [rising, single point]"
COc1ccc(N(Cc2cccs2)C(=O)c2ccc(OC)c(Cl)c2)cc1,,"22.4 µM [rising, partial curve]"
Cc1[nH]n(-c2cccc(Cl)c2)c(=O)c1-c1ccc(Cl)cc1,"2.82 µM [rising, partial curve, poor fit]","4.47 µM [rising, single point]"
Cc1cccc(CNc2ccnc(-c3ccc(N(C)C)cc3)n2)c1,"20 µM [falling, single point]","35.5 µM [falling, single point]"
O=C(Cc1cccs1)N1CCN=C1SCc1ccc(Br)cc1,"2.82 µM [rising, full curve]","15.8 µM [rising, partial curve]"
Cc1ccc(C(C(=O)NC2CCCCC2)N(Cc2ccco2)C(=O)Cc2c[nH]c3ccccc23)o1 (configuration not stated),"25.1 µM [rising, single point]","35.5 µM [rising, single point]"
COc1cccc(N2CCN(C(=O)C3CCN(S(=O)(=O)c4c(C)noc4/C=C/c4ccccc4F)CC3)CC2)c1,"3.98 µM [falling, full curve, poor fit]",
c1ccc(-c2cc(N3CCOCC3)nc3ccccc23)cc1,"12.6 µM [rising, partial curve]","25.1 µM [rising, partial curve]"
CCc1nn2cc(C(=O)c3cc(C)ccc3O)cnc2c1-c1ccc(F)cc1,,"2.82 µM [rising, partial curve, poor fit]"

# Some of the entries above, set out differently.
SMILES | AC50 [1] | AC50 [2]
O=C(Cn1ccn(-c2ccc(F)cc2)c(=O)c1=O)Nc1ccc(F)cc1 | 11.2 µM [falling, partial curve, poor fit] | 0.00447 µM [falling, full curve, poor fit]
COc1ccccc1NC(=O)CCCn1c(=S)[nH]c2ccccc2c1=O |  | 0.00355 µM [falling, full curve, poor fit]
O=C(NCCC1=CCCCC1)c1ccc(Cl)c(S(=O)(=O)Nc2ccccc2)c1 |  | 8.91 µM [rising, partial curve]
O=C(NCCc1ccc(Cl)cc1)c1ccc(CS(=O)(=O)c2ccc(Cl)cc2)o1 | 35.5 µM [falling, single point] | 

# — PubChem BioAssay AID1487 (National Center for Advancing Translational Sciences (NCATS), 2009)
